Patent US4537924A, “Quadratic acid amide derivatives, their use as stabilizers, and synthetic resins treated therewith” (Chemische Werke Huels, AG, priority 1982, dated 1985)
At least one structure is not confirmed: it was looked up by name or label, or the drawing left a doubt.

Assay: Extraction of stabilizers from polyether esters with boiling organic solvents
Format: physicochemical
Conditions: from polyether ester
From the text: (b) Polyether Esters (Number Average Mol. Wt. 25,000)
Into a polyether ester melt based on terephthalic acid, 1,4-butanediol, and polytetrahydrofuran, 0.5% by weight of the respective quadratic acid amide was introduced. After processing into granules, the latter were used to make press-molded panels of a thickness of 1 mm, from which chips were cut of 30×10 mm.
The solubility values in water and dilute acetic acid (Tables 2 and 3), as well as the extraction values (Tables 4 and 7) confirm the low migrating tendency of the compounds according to the present invention.

CC1(C)CC(N(CCO)c2c([O-])c(=[N+](CCO)C3CC(C)(C)NC(C)(C)C3)c2=O)CC(C)(C)N1 [Example 7, 1,3-Bis[N-2-hydroxyethyl-N-(2,2,6,6-tetramethyl-4-piperidyl)amino]cyclobutenediylium-2,4-diolate]
Degree of extraction after 8-hour treatment (methanol (65° C.)): 33 % of Maximally Extractable Qua | Degree of extraction after 8-hour treatment (toluene (110° C.)): 25 % of Maximally Extractable Qua
